# The whole screen tested about 310,000 compounds, of which about 1,500 (0.48%) were called active. All entries are inconclusive by the source's own rule. Clear calls are listed elsewhere.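 Rule for the calls: active = binding more than 3 SD below its plate's average and above zero; inconclusive = below that plate limit but binding exactly zero; inactive = the rest.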
# Chains of the proteins cited; added tags and fusions are not shown.
# UniProt P32926, whole entry, looked up: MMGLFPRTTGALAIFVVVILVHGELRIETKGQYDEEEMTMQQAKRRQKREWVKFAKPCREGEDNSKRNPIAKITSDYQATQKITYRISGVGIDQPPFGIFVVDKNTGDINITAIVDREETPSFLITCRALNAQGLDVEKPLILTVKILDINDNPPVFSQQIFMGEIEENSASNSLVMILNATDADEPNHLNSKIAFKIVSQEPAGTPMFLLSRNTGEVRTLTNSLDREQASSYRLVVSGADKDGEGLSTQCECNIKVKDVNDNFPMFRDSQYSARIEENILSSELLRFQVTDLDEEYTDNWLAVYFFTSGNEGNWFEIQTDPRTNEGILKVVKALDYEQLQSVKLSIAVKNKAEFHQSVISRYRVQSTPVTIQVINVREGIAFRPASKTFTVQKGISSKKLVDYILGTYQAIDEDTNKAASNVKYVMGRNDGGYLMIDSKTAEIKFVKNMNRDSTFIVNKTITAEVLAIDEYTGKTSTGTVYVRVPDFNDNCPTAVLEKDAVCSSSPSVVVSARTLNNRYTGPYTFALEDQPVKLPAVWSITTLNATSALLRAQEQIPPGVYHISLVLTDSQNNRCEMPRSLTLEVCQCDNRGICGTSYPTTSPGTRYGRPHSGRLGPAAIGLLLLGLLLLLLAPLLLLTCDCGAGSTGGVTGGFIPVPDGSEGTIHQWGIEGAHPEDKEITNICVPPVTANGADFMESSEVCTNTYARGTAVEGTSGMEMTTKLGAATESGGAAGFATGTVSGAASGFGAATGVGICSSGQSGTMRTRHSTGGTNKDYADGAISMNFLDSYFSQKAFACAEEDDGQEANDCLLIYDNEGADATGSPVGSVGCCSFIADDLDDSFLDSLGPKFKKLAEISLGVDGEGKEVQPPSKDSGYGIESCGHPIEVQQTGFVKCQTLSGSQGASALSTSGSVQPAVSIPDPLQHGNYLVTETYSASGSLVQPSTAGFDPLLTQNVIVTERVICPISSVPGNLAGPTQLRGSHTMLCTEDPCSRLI
# Target: Desmoglein-3 (Homo sapiens) (UniProt P32926)
# Experiment: inhibitors of pemphigus antibody binding to DSG3, primary screen, biochemical, bead-based, flow cytometry, scFv-GFP (AID 588358)
# Conditions: DSG3-coupled beads, scFv-anti-DSG3-GFP binding, at 10 µM
row,SMILES,outcome
1,CC1=NCCc2c1[nH]c1ccccc21.O=[N+]([O-])c1cc([N+](=O)[O-])c(O)c([N+](=O)[O-])c1,inconclusive

# Source: PubChem BioAssay AID588358 (NMMLSC, 2011)
